Test [1] deals with HA-PKM2 (pyruvate kinase M2), in HEK293T (UniProt P14618). The experiment in a line: co-IP; HEK293T co-transfected with HA- and Flag-tagged proteins, 48 h; lysate with anti-HA beads overnight at 4 °C; western blot with Flag and HA antibodies.
For test [2], the target named is HA-PKM2 (pyruvate kinase M2), in HepG2 (UniProt P14618). In words: co-IP; HepG2 transfected with HA-PKM2 for 48 h; extracts immunoprecipitated with anti-HA (IgG as control); blot with anti-HDAC8 and HA antibody.
Test [3] addresses PKM2 (pyruvate kinase M2), endogenous (human (endogenous in HepG2, SMMC-7721, LO2)) (UniProt P14618). The experiment in a line: co-IP; endogenous; HepG2 lysate with antibody against PKM2 and protein A/G agarose overnight at 4 °C; blot with anti-PKM2 and anti-HDAC8.
For test [4] the target is unchanged. In words: proximity ligation; Duolink in situ PLA of HDAC8 and PKM2 in fixed SMMC-7721 and LO2 cells.

By UniProt entry, the sequences of proteins in these tests, tags left out.
UniProt P14618: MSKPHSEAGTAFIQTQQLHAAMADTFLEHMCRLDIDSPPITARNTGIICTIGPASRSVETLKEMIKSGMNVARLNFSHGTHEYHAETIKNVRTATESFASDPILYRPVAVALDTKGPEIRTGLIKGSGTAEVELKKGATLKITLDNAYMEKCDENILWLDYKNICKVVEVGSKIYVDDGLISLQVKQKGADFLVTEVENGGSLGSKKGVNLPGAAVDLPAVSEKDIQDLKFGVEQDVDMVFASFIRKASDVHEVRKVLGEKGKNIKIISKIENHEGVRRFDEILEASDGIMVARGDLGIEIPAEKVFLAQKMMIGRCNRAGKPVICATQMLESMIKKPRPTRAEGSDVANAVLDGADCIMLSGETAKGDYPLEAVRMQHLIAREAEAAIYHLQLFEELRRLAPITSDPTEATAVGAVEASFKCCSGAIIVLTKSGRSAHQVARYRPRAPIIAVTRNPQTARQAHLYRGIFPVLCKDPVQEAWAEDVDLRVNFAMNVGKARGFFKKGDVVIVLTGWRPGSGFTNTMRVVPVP

Results are given in words; binding and its absence hold for the method and conditions named. In cells and extracts the contact can be indirect. Some binding calls cover weakened binding; strength is not graded here. Tags and fused reporters may be left off the sequences shown.

From article PMC7719180 come the findings set out here.

B1: Flag-HDAC8 (histone deacetylase 8) (enzyme, UniProt Q9BY41 1-377)
chain: MEEPEEPADSGQSLVPVYIYSPEYVSMCDSLAKIPKRASMVHSLIEAYALHKQMRIVKPKVASMEEMATFHTDAYLQHLQKVSQEGDDDHPDSIEYGLGYDCPATEGIFDYAAAIGGATITAAQCLIDGMCKVAINWSGGWHHAKKDEASGFCYLNDAVLGILRLRRKFERILYVDLDLHHGDGVEDAFSFTSKVMTVSLHKFSPGFFPGTGDVSDVGLGKGRYYSVNVPIQDGIQDEKYYQICESVLKEVYQAFNPKAVVLQLGADTIAGDPMCSFNMTPVGIGKCLKYILQWQLATLILGGGGYNLANTARCWTYLTGVILGKTLSSEIPDHEFFTAYGPDYVLEITPSCRPDRNEPHRIQQILNYIKGNLKHVV
As to B1, the binding result in test [1] is “binds”.

B2: HDAC8 (histone deacetylase 8), endogenous (enzyme, UniProt Q9BY41 1-377)
chain: MEEPEEPADSGQSLVPVYIYSPEYVSMCDSLAKIPKRASMVHSLIEAYALHKQMRIVKPKVASMEEMATFHTDAYLQHLQKVSQEGDDDHPDSIEYGLGYDCPATEGIFDYAAAIGGATITAAQCLIDGMCKVAINWSGGWHHAKKDEASGFCYLNDAVLGILRLRRKFERILYVDLDLHHGDGVEDAFSFTSKVMTVSLHKFSPGFFPGTGDVSDVGLGKGRYYSVNVPIQDGIQDEKYYQICESVLKEVYQAFNPKAVVLQLGADTIAGDPMCSFNMTPVGIGKCLKYILQWQLATLILGGGGYNLANTARCWTYLTGVILGKTLSSEIPDHEFFTAYGPDYVLEITPSCRPDRNEPHRIQQILNYIKGNLKHVV
In the case of B2, the binding result in test [2], in test [3] and in test [4] was “binds” in each case.
